Test results reported in paper PMC3314965.
No constants are given. Whether binding was seen depends on the method and setting. Binding seen in cells or lysates may run through a third protein.

Amino acid sequences for entries named in this document (tags omitted). Residues count along the entry.
UniProt P28824, residues 22-928: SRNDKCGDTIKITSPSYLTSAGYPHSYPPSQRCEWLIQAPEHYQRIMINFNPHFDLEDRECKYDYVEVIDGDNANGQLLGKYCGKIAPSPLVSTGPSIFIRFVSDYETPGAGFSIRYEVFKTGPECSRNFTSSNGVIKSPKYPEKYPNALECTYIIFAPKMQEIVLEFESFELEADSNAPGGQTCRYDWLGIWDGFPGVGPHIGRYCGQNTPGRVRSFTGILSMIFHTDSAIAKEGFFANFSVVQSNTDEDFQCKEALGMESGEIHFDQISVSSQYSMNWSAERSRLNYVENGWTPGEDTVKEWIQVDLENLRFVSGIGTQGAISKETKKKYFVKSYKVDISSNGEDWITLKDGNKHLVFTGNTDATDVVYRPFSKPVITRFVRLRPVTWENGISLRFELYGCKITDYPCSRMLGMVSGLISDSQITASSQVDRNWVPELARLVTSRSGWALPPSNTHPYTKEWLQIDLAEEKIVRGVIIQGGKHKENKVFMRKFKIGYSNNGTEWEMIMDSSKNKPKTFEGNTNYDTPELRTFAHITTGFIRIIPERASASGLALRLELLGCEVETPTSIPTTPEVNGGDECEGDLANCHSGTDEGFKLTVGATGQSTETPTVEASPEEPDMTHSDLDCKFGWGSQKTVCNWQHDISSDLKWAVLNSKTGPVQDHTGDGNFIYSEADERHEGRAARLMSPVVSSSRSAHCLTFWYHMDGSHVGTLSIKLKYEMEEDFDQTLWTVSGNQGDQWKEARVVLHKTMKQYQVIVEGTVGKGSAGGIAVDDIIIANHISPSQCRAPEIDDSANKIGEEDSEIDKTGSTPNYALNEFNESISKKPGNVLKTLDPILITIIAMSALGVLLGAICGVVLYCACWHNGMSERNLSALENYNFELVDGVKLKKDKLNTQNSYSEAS

Biological target: neuropilin1 (Xenopus laevis (endogenous in cultured retinal explants)) (UniProt P28824)
Assay: proximity ligation; Duolink in situ PLA on fixed, permeabilised cultured retinal explants (RGC growth cones) from Xenopus embryos; pairs of mouse and rabbit primary antibodies; positive signal only when the two antibodies are within 40 nm

B1: lamin B2 (protein, UniProt P21910 1-623)
chain: MATTTPSRSTRSSMQSPARGTSTPLSPTRISRLQEKEELRHLNDRLAVYIDRVRALELENDRLMVKISEKEEVTTREVSGIKNLYESELADARKVLDETARERARLQIELGKFRSDLDELNKNYKKKDADLSTAQGRIKDLEALFHRSEAELGTALGEKRSLEAEVADLRAQLSKTEDAHRVAKKQLEKETLMRVDFENRMQSLQEEMDFRKNIYEEESRETRKRHERRIVEVDRGHHYDYESKLAQALDELRKQHDEQVKMYKEELEQTYQAKLDNIKRSSDHNDKAANTALEELTERRMRIETLGYQLSGLQKQANAAEERIRELEELLSSDRDKYRKLLDSKEREMAEMRDQMQQQLNEYQELLDVKLALDLEINAYRKLLEGEEERLKLSPSPESRVTVSRATSSSSSATRTSRSKRRRVEEEYEEGGASTGFGAGHSLGSSRITASEGSSRTITSGQSSTTRFHLSQQASATGSISIEEIDLEGKYVHLKNNSDKDQSLGNWRLKRKIGEEEEIVYKFTPKYVLKAGQSVKIYSADAGVAHSPPSILVWKNQSSWGTGSNIRTYLVNTEEEEVAVRTVTKSVLRNVEEEEDEDADFGEEDLFHQQGDPRTTSRGCSVM
**Q.** With B1 as the binder, how does the binding read?
**A.** no binding
